According to the supplement of paper PMC9549374:
The list shows a part of the results. Rule as the data show it: active = 2-fold of DMSO or more and inactive = the rest. Single values of this set are uncertain. Some low values are a fixed figure set by the source, not a measured ratio.

These compounds were tested on CM7/1-hgem mouse ES cell-derived cardiomyocytes (assay: maximal number of mAG-hGem(1/110)-positive cardiomyocytes over 96 h, fold-change vs DMSO; higher = more cardiomyocyte cell cycle activity). Settings: 1 µM; 96 (max over 12 h time points) h.

Q: For CCOc1ccc(C(=O)c2ccc(OC)c(O)c2O)cc1, which maximal number is on record?
A: The maximal number was inactive: 0.

Q: With C=CCCCCCCCCCCCC(O)CC(O)CO (stereo not drawn) as the compound, how does the maximal number read?
A: Its maximal number is inactive: 1.

Q: How did the maximal number turn out when CC[C@H](/C=C/[C@@H](C)[C@H]1CC[C@H]2[C@@H]3CC=C4C[C@@H](O)CC[C@]4(C)[C@H]3CC[C@]12C)C(C)C was run?
A: The maximal number was inactive: 1.

Q: With CC(=O)NC[C@H]1CN(c2ccc(N3CCOCC3)c(F)c2)C(=O)O1 as the compound, how does the maximal number read?
A: Its maximal number is inactive: 1.

Q: Which maximal number does the source give for Cn1c(=O)c2c(ncn2CC2OCCO2)n(C)c1=O here?
A: Its maximal number is inactive: 1.

Q: With COC(=O)/C(=C1/OC(=O)C(c2ccccc2)=C1O)c1ccccc1 as the compound, how does the maximal number read?
A: The maximal number was inactive: 1.

Q: With CC1(C)C(=O)[C@H]2C[C@]3(O)C4=CC(=O)O[C@@H](c5ccoc5)[C@@]4(C)CCC3[C@](C)(C2=O)[C@H]1CC(=O)O (stereo partly drawn) as the compound, how does the maximal number read?
A: The maximal number was inactive: 1.

Q: For CC1(O)CCC(C(C)(C)O)CC1 (stereo not drawn), which maximal number is on record?
A: Its maximal number is inactive: 1.

Q: With CCCCCc1c2c(cc(O)c1C(=O)O)OC(=O)c1c(cc(OC)cc1C(=O)CCCC)O2 as the compound, how does the maximal number read?
A: The maximal number was active: 2.

Q: For C=CC1=C(C)c2cc3[nH]c(cc4nc(cc5[nH]c(cc1n2)c(C)c5CCC(=O)O)C(CCC(=O)O)=C4C)c(C)c3C=C, which maximal number is on record?
A: Its maximal number is inactive: 1.

Q: Which maximal number does the source give for CC1(C)[C@@H](O)CC[C@]2(C)[C@H]3C(=O)C=C4[C@H]5C[C@@](C)(C(=O)O)CC[C@]5(C)CC[C@@]4(C)[C@]3(C)CC[C@@H]12 [18alpha-GLYCYRRHETINIC ACID] here?
A: The maximal number was inactive: 1.

Q: With OC[C@H]1O[C@@H](O[C@H]2[C@H](O)[C@@H](O)[C@@H](O)O[C@@H]2CO)[C@H](O)[C@@H](O)[C@@H]1O as the compound, how does the maximal number read?
A: Its maximal number is inactive: 1.

Q: How did the maximal number turn out when O=C1O[C@H]([C@@H](O)CO)C(O)=C1O was run?
A: The maximal number was inactive: 1.

Q: For COc1ccc(-c2cc(=O)c3c(O)c(OC)c(O[C@@H]4O[C@H](CO[C@@H]5O[C@@H](C)[C@H](O)[C@@H](O)[C@H]5O)[C@@H](O)[C@H](O)[C@H]4O)cc3o2)cc1, which maximal number is on record?
A: The maximal number was inactive: 1.

Q: C/C1=C\CC(C)(C)/C=C/CC2(C)OC2CC1 (stereo not drawn) was tested. Which maximal number did it give?
A: Its maximal number is inactive: 1.

Q: With Cc1oc(=O)oc1CN1CCN(c2cc3c(cc2F)c(=O)c(C(=O)O)c2n3C(C)S2)CC1 (stereo not drawn) as the compound, how does the maximal number read?
A: Its maximal number is inactive: 1.

Q: How did the maximal number turn out when Cc1cn([C@H]2C=C[C@@H](CO)O2)c(=O)[nH]c1=O was run?
A: Its maximal number is inactive: 1.

Q: For COc1cc(-c2coc3cc(O[C@@H]4O[C@H](CO)[C@@H](O)[C@H](O)[C@H]4O)c(OC)c(O)c3c2=O)cc(O)c1OC, which maximal number is on record?
A: The maximal number was inactive: 0.

Q: Which maximal number does the source give for C[C@@H]1CC[C@H]2[C@](C)(CO)[C@@H](O)CC[C@]2(C)[C@@]12CC[C@@](CO)(CCO)O2 here?
A: The maximal number was inactive: 1.

Q: Which maximal number does the source give for CCOc1ccc2c(c1)C(C)=CC(C)(C)N2 here?
A: Its maximal number is inactive: 1.

Q: How did the maximal number turn out when CC(=O)c1cc2c(cc1O)OC(C)(C)C=C2 was run?
A: The maximal number was inactive: 1.

Q: Which maximal number does the source give for Cc1c(O)c(=O)ccn1C here?
A: Its maximal number is inactive: 1.

Q: For OCC(O)C(O)C(O)CO (stereo not drawn), which maximal number is on record?
A: Its maximal number is inactive: 1.

Q: COc1c(-c2coc3cc4c(cc3c2=O)CC(OC(C)=O)C(C)(C)O4)ccc2c1C=CC(C)(C)O2 (stereo not drawn) was tested. Which maximal number did it give?
A: Its maximal number is inactive: 1.

Q: With C=C(C)[C@@H]1CC[C@]2(CO)CC[C@]3(C)[C@H](CC[C@@H]4[C@@]5(C)CC[C@H](O)C(C)(C)[C@@H]5CC[C@]43C)[C@@H]12 as the compound, how does the maximal number read?
A: Its maximal number is inactive: 0.5.

Q: With CC(=O)Oc1ccc2c(c1OC(C)=O)OCC1(O)Cc3c(cc(OC(C)=O)c(OC(C)=O)c3OC(C)=O)C21 (stereo not drawn) as the compound, how does the maximal number read?
A: Its maximal number is inactive: 1.

Q: How did the maximal number turn out when COC(=O)C[C@H]1C2(C)CC34OC5(C)O[C@@]6([C@H](OC(C)=O)C(OC(C)=O)[C@]7(C)C(/C(=C(/O)C(C)C)C(=O)O[C@H]7c7ccoc7)[C@@]6(O5)[C@H](OC(C)=O)[C@@]3(O)C2OC(=O)C(C)C)[C@]14C (stereo partly drawn) was run?
A: Its maximal number is inactive: 1.

Q: How did the maximal number turn out when CC(C)CCCC(C)C1CCC2C3=CCC4CC(O)CCC4(C)C3CCC21C (stereo not drawn) was run?
A: Its maximal number is inactive: 0.

Q: For COc1cc(O)c(C(C)=O)c(OC)c1, which maximal number is on record?
A: The maximal number was inactive: 0.

Q: How did the maximal number turn out when CN1CCN(C2=Nc3ccccc3Oc3ccc(Cl)cc32)CC1 was run?
A: Its maximal number is inactive: 1.

Q: How did the maximal number turn out when O=C(Oc1cc(O)cc2c1C[C@@H](OC(=O)c1cc(O)c(O)c(O)c1)[C@@H](c1cc(O)c(O)c(O)c1)O2)c1cc(O)c(O)c(O)c1 was run?
A: The maximal number was inactive: 0.

Q: For C=C(C)[C@@H]1CC=C(C(=O)O)CC1, which maximal number is on record?
A: The maximal number was inactive: 1.

Q: Which maximal number does the source give for COc1c(CC(=O)c2cc3c(cc2O)OC(C)(C)C(O)C3)ccc2c1C=CC(C)(C)O2 (stereo not drawn) here?
A: Its maximal number is inactive: 1.

Q: CCCCCCCCCCCC[C@@H](C(=O)O)[C@H](C)C(=O)O was tested. Which maximal number did it give?
A: The maximal number was inactive: 1.

Q: C[C@]12CCC(=O)C=C1CC[C@@H]1[C@@H]2[C@@H](O)C[C@@]2(C)[C@H]1CC[C@]2(O)C(=O)CO was tested. Which maximal number did it give?
A: The maximal number was inactive: 1.

Q: NC(N)=Nc1nc(CSCC/C(N)=N/S(N)(=O)=O)cs1 was tested. Which maximal number did it give?
A: Its maximal number is inactive: 1.

Q: Which maximal number does the source give for OC[C@H]1O[C@@H](Oc2cc(O)cc(/C=C/c3ccc(O)cc3)c2)[C@H](O)[C@@H](O)[C@@H]1O here?
A: The maximal number was inactive: 1.

Q: COc1ccc(Cc2cnc(N)nc2N)cc1OC was tested. Which maximal number did it give?
A: Its maximal number is inactive: 1.
